Laboratory results published in PMC3679108, “A Novel Glucagon-Related Peptide (GCRP) and Its Receptor GCRPR Account for Coevolution of Their Family Members in Vertebrates” (PLoS ONE, 2013).
No constants are given. Whether binding was seen depends on the method and setting. A result given as binding can be weak or reduced; the word gives no strength.

Assays:
Assay in all cases: radioligand binding; competitive displacement on HEK293T cells transfected with GCRPR (300 ng DNA/well, 12-well plates); 100,000 cpm 125I-chGCRP without or with various concentrations of cold peptides, 1 h, binding buffer (serum-free DMEM with 0.1% BSA, pH 7.4); IC50 by nonlinear regression; only the binder purified
[1] = molecular target: Xenopus GCRP receptor (Xenopus)
[2] = molecular target: chicken GCRP receptor (chicken)
[3] = molecular target: medaka GCRP receptor (medaka)

Measured: binding

HSEGTFTSDFTRYLDKMKAKDFVHWLINT (125I (radioiodinated by the chloramine-T method)) [125I-chGCRP]
binds: all assays above
